These results are taken from EP0670711B1, “ANTIFUNGAL MOUTHCARE COMPOSITIONS” (AMBI Inc., priority 1992, dated 1994).

Holding throughout (format): cell-based
Assay [1] deals with Act. israelii. Briefly: nominal inhibitory concentration (NIC) assay. The following applies: Actinomyces israelii, read-out: NIC. On the procedure: (§1) The antibacterial spectrum of activity of Ambicin N (Amb) was determined by testing the compound against a range of orally important Gram negative and Gram positive bacteria in a conventional nominal inhibitory concentration (NIC) assay and compared with that of cetyl pyridinium chloride (CPC), chlorhexidine (CHX) and triclosan. […] In comparison, CPC, CHX and TCN are all effective against Candida.

The subject of assay [2] is Candida albicans. Briefly: nominal inhibitory concentration (NIC) assay. The following applies: read-out: NIC. On the procedure: as §1
The subject of assay [3] is all the organisms shown in the Example 25 Table 1. Briefly: NIC assay, summary over all organisms of Table 1. The following applies: read-out: levels needed to inhibit all the desired oral microrganisms.
Assay [4] relates to Candida organisms. Briefly: NIC assay, summary for Candida. The following applies: read-out: levels for Candida inhibition.

With `CCCCCCCCCCCCCCCC[n+]1ccccc1` [CPC, cetyl pyridinium chloride], the MIC was 8.15 µg/mL in assay [1], 1.39 µg/mL in assay [2], about 8.15 µg/mL in assay [3] and about 1.39 µg/mL in assay [4].
